For this experiment, the target named is I-A^g7 MHC-II molecule (mouse (endogenous in NOD blood leukocytes)). Put plainly: affinity purification with mass spectrometry; I-A^g7 isolated from detergent lysate of NOD blood leukocytes (30 min after i.p. glucose challenge, two experiments; or without glucose, one experiment) on anti–I-A^g7 (AG2.42.7) sepharose at 4°C overnight after pre-clearing on mouse IgG sepharose; washes up to 400 mM NaCl, 20 mM Tris; bound peptides eluted with 10% acetic acid and identified by LC-MS/MS.

These are yes or no findings as the source states them, for the method shown. Binding seen in cells or lysates may run through a third protein. These calls come from enrichment with a bait or labelling near it, and not all partners need be listed.

Turning to ILSVHVATAA [ZnT8:313–322 peptide (zinc transporter 8)], the binding result was “binds”.

On to PQVEQLELGGSPGDLQTLAL [Ins1C:37–56 peptide family (N-terminal fragment of the insulin-1 C-peptide)], for which the binding entry is “binds”.

For LQTLALEVARQ [Ins1C:51–61 peptide (C-terminal fragment of the insulin-1 C-peptide)], the binding entry is reported as “binds”.

Regarding LVEALYLVCGERG [Ins2B:11-23 peptide], the binding entry is “binds”.

Regarding SHLVEALYLVCGERG [Ins2B:9–23 peptide (insulin-2 B-chain)], the binding result is reported as “binds”.

In the case of VEALYLVCGERG [Ins2B:12-23 peptide], the binding result is on record as “binds”.

As for SPLLKRQLTSFIEKGQE [Gc:389–405 peptide (vitamin D–binding protein)], the binding entry is “binds”.

As to LQTLALEVARE (deamidation of glutamine Q61 (converts Q to E)) [singly deamidated (Q61) Ins1C:51-61 peptide], the binding result is listed as “binds”.

As for PGAGDLQTLAL [Ins2C:48–58 peptide (insulin-2 C-peptide)], the binding entry is given as “binds”.

PQVAQLELGGG [Ins2C:37–47 peptide family (insulin-2 C-peptide)]: the binding entry is recorded as “binds”.

As for TPEEIAQVATISANGDKDIG [Hspd1:164–183 peptide family (60-kD heat shock protein)], the binding entry is given as “binds”.

(Values after publication PMC8034384.)
